Results are given in words; binding and its absence hold for the method and conditions named. Binding seen in cells or lysates may run through a third protein. Binding can be weak; no strength is given.
Molecular target: T1, Leg1a expressed in zebrafish embryos from injected mRNA (zebrafish) (UniProt A5PF61)
T1 sequence: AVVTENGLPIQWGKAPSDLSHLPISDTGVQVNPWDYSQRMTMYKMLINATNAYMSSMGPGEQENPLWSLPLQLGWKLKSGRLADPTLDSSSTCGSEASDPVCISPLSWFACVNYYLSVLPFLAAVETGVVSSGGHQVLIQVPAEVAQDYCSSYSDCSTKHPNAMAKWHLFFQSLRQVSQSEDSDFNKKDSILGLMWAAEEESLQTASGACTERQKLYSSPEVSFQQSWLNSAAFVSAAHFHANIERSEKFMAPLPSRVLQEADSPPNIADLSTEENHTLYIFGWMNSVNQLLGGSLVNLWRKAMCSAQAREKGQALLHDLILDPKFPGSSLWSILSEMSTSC
Experiment: co-IP; zebrafish embryos co-injected with leg1a and fgfr3 mRNA at one-cell stage, harvested at 7 hpf, NP40 lysate; IP with the Leg1 antibody (mouse IgG as control), FGFR3 detected with an anti-FGFR3 antibody

binding: binds
Substance: FGFR3 expressed in zebrafish embryos from injected mRNA (receptor)

Reference: article PMC4764323
